{
  "source": "patent US20180200257A1",
  "about": "“METHODS FOR THE TREATMENT OF INFLAMMATORY DISORDERS” (Galapagos NV, priority 2015, published 2018)",
  "system": "subjects with moderately to severely active RA who have an inadequate response to methotrexate (MTX)",
  "experiment": "Study 2 (monotherapy) - ACR responses (ACR20/50/70)",
  "format": "in vivo, human",
  "from_the_text": "The terms “ACR20”, “ACR50” and “ACR70” as used herein are scores which indicate how much a patient's rheumatoid arthritis has improved according to criteria set out by the American College of Rheumatology (ACR). The ACR score represents a percentage. An ACR20 score means that a person's RA has improved by 20%, an ACR50 score means it has improved by 50%, and an ACR70 score means it has improved by 70%. Specifically, to qualify for an ACR20 score, a person with RA must have at least 20% fewer tender joints and at least 20% fewer swollen joints. In addition the patient must show a 20% improvement in at least three of the following five areas: the person's overall (global) assessment of his or her own RA, the physician's global assessment of the person's RA, the person's assessment of his or her own pain, the person's assessment of his or her own physical functioning, and the results of an erythrocyte sedimentation rate or C-reactive protein (CRP) blood test (both of which test for inflammation). ACR50 and ACR70 scores use the same criteria but require 50% and 70% improvement, respectively, (Felson et al., 1993). In the data presented herein the CRP blood test is used.\nRandomized, double-blind, placebo-controlled, multicenter, phase IIb dose finding study of Compound 1 (dosed as a [Compound 1:HCl:3H2O]) administered for 24 weeks as monotherapy to subjects with moderately to severely active rheumatoid arthritis who have an inadequate response to methotrexate alone\nDouble-blind, placebo-controlled, monotherapy study in subjects with moderately to severely active RA who have an inadequate response to methotrexate (MTX) (oral or parenteral).\n280 subjects randomized to one of 3 doses of Compound 1 (dosed as a [Compound 1:HCl:3H2O]) or to placebo, given once daily (q.d.).\nTwelve weeks of treatment with Compound 1 (dosed as a [Compound 1:HCl:3H2O]) at 50 mg, 100 mg, or 200 mg q.d.; or placebo. At Week 12, all subjects on placebo and the subjects on the 50 mg dose who have not achieved 20% improvement in swollen joint count (SJC66) and tender joint count (TJC68) will be assigned to 100 mg q.d. in a blinded fashion and will continue treatment until Week 24. Subjects in the other groups will maintain their randomized treatment until Week 24.\nThe American College of Rheumatology (ACR) composite score, which evaluates clinical improvement relative to an initial assessment, is a commonly accepted efficacy end point for clinical trials in patients with rheumatoid arthritis. The ACR score correspond to a percentage improvement in pre-set parameters, and therefore measures the evolution of the disease in a patient. For example, ACR20 denotes at least 20% improvement in tender and swollen joint counts and in three of the following end points: global assessment by the patient, global assessment by the doctor, C reactive protein (CRP), patient's pain Visual Analogue Scale and Health Assessment Questionnaire Score. The number of swollen joints, ESR and CRP correlate with radiographic progression of joint damage, whereas tender joint counts, as well as global assessments by doctors and patients, and patients' reports of pain, are sensitive to change in clinical outcomes. Physical function, as assessed by the Health Assessment Questionnaire Score, is a potent predictor of the risk of disability in rheumatoid arthritis (Felson and American College of Rheumatology Committee to Reevaluate Improvement Criteria, 2007; Felson et al., 1993).\nIn particular, the list of parameters used to assess ACR score can be found in the Table XCVI below and the results of the ACR responses at week 12 via either NRI or LOCF are shown in the tables below. The Hommel-corrected p-value for the pairwise comparisons of each group with placebo is shown. […]",
  "key": {"[1]": {"conditions": "50 mg q.d., week 12, 12 weeks results"}, "[2]": {"conditions": "50 mg q.d., week 12, 24 weeks results"}, "[3]": {"conditions": "50 mg q.d., week 16, 24 weeks results"}, "[4]": {"conditions": "50 mg q.d., week 20, 24 weeks results"}, "[5]": {"conditions": "50 mg q.d., week 24, 24 weeks results"}, "[6]": {"conditions": "100 mg q.d., week 8, 24 weeks results"}, "[7]": {"conditions": "100 mg q.d., week 12, 12 weeks results"}, "[8]": {"conditions": "100 mg q.d., week 12, 24 weeks results"}, "[9]": {"conditions": "100 mg q.d., week 16, 24 weeks results"}, "[10]": {"conditions": "100 mg q.d., week 20, 24 weeks results"}, "[11]": {"conditions": "100 mg q.d., week 24, 24 weeks results"}, "[12]": {"conditions": "200 mg q.d., week 8, 24 weeks results"}, "[13]": {"conditions": "200 mg q.d., week 12, 12 weeks results"}, "[14]": {"conditions": "200 mg q.d., week 12, 24 weeks results"}, "[15]": {"conditions": "200 mg q.d., week 16, 24 weeks results"}, "[16]": {"conditions": "200 mg q.d., week 20, 24 weeks results"}, "[17]": {"conditions": "200 mg q.d., week 24, 24 weeks results"}},
  "note": "Further values from the same series stand in other lists.",
  "data": [
    {"smiles": "O=C(Nc1nc2cccc(-c3ccc(CN4CCS(=O)(=O)CC4)cc3)n2n1)C1CC1", "note": "[Compound 1, cyclopropanecarboxylic acid {5-[4-(1,1-dioxo-thiomorpholin-4-ylmethyl)-phenyl]-[1,2,4]triazolo[1,5-a]pyridin-2-yl}-amide]", "values": [
      {"measurement": "ACR20 (LOCF)", "setting": "[1]", "result": 68.1, "unit": "%%"},
      {"measurement": "ACR20 (NRI)", "setting": "[1]", "result": 66.7, "unit": "%%"},
      {"measurement": "ACR50 (LOCF)", "setting": "[1]", "result": 36.1, "unit": "%%"},
      {"measurement": "ACR70 (LOCF)", "setting": "[1]", "result": 8.3, "unit": "%%"},
      {"measurement": "ACR20 (LOCF)", "setting": "[2]", "result": 66.7, "unit": "%"},
      {"measurement": "ACR20 (NRI)", "setting": "[2]", "result": 66.7, "unit": "%"},
      {"measurement": "ACR50 (LOCF)", "setting": "[2]", "result": 34.7, "unit": "%"},
      {"measurement": "ACR70 (LOCF)", "setting": "[2]", "result": 8.3, "unit": "%"},
      {"measurement": "ACR20 (LOCF)", "setting": "[3]", "result": 61.1, "unit": "%"},
      {"measurement": "ACR20 (NRI)", "setting": "[3]", "result": 55.6, "unit": "%"},
      {"measurement": "ACR50 (LOCF)", "setting": "[3]", "result": 36.1, "unit": "%"},
      {"measurement": "ACR70 (LOCF)", "setting": "[3]", "result": 15.3, "unit": "%"},
      {"measurement": "ACR20 (LOCF)", "setting": "[4]", "result": 58.3, "unit": "%"},
      {"measurement": "ACR20 (NRI)", "setting": "[4]", "result": 51.4, "unit": "%"},
      {"measurement": "ACR50 (LOCF)", "setting": "[4]", "result": 33.3, "unit": "%"},
      {"measurement": "ACR70 (LOCF)", "setting": "[4]", "result": 13.9, "unit": "%"},
      {"measurement": "ACR20 (LOCF)", "setting": "[5]", "result": 65.3, "unit": "%"},
      {"measurement": "ACR20 (NRI)", "setting": "[5]", "result": 56.9, "unit": "%"},
      {"measurement": "ACR50 (LOCF)", "setting": "[5]", "result": 36.1, "unit": "%"},
      {"measurement": "ACR70 (LOCF)", "setting": "[5]", "result": 19.4, "unit": "%"},
      {"measurement": "ACR20 (LOCF)", "setting": "[6]", "result": 61.4, "unit": "%"},
      {"measurement": "ACR20 (NRI)", "setting": "[6]", "result": 61.4, "unit": "%"},
      {"measurement": "ACR50 (LOCF)", "setting": "[6]", "result": 25.7, "unit": "%"},
      {"measurement": "ACR70 (LOCF)", "setting": "[6]", "result": 11.4, "unit": "%"},
      {"measurement": "ACR20 (LOCF)", "setting": "[7]", "result": 65.7, "unit": "%%"},
      {"measurement": "ACR20 (NRI)", "setting": "[7]", "result": 65.7, "unit": "%%"},
      {"measurement": "ACR50 (LOCF)", "setting": "[7]", "result": 32.9, "unit": "%%"},
      {"measurement": "ACR70 (LOCF)", "setting": "[7]", "result": 18.6, "unit": "%%"},
      {"measurement": "ACR20 (LOCF)", "setting": "[8]", "result": 67.1, "unit": "%"},
      {"measurement": "ACR20 (NRI)", "setting": "[8]", "result": 67.1, "unit": "%"},
      {"measurement": "ACR50 (LOCF)", "setting": "[8]", "result": 35.7, "unit": "%"},
      {"measurement": "ACR70 (LOCF)", "setting": "[8]", "result": 18.6, "unit": "%"},
      {"measurement": "ACR20 (LOCF)", "setting": "[9]", "result": 71.4},
      {"measurement": "ACR20 (NRI)", "setting": "[9]", "result": 70.0},
      {"measurement": "ACR50 (LOCF)", "setting": "[9]", "result": 40.0, "unit": "%"},
      {"measurement": "ACR70 (LOCF)", "setting": "[9]", "result": 17.1, "unit": "%"},
      {"measurement": "ACR20 (LOCF)", "setting": "[10]", "result": 72.9, "unit": "%"},
      {"measurement": "ACR20 (NRI)", "setting": "[10]", "result": 70.0, "unit": "%"},
      {"measurement": "ACR50 (LOCF)", "setting": "[10]", "result": 42.9, "unit": "%"},
      {"measurement": "ACR70 (LOCF)", "setting": "[10]", "result": 25.7, "unit": "%"},
      {"measurement": "ACR20 (LOCF)", "setting": "[11]", "result": 80.0, "unit": "%"},
      {"measurement": "ACR20 (NRI)", "setting": "[11]", "result": 77.1, "unit": "%"},
      {"measurement": "ACR50 (LOCF)", "setting": "[11]", "result": 41.4, "unit": "%"},
      {"measurement": "ACR70 (LOCF)", "setting": "[11]", "result": 25.7, "unit": "%"},
      {"measurement": "ACR20 (LOCF)", "setting": "[12]", "result": 73.9, "unit": "%"},
      {"measurement": "ACR20 (NRI)", "setting": "[12]", "result": 73.9, "unit": "%"},
      {"measurement": "ACR50 (LOCF)", "setting": "[12]", "result": 33.3, "unit": "%"},
      {"measurement": "ACR70 (LOCF)", "setting": "[12]", "result": 17.4, "unit": "%"},
      {"measurement": "ACR20 (LOCF)", "setting": "[13]", "result": 72.5, "unit": "%%"},
      {"measurement": "ACR20 (NRI)", "setting": "[13]", "result": 72.5, "unit": "%%"},
      {"measurement": "ACR50 (LOCF)", "setting": "[13]", "result": 42.0, "unit": "%%"},
      {"measurement": "ACR70 (LOCF)", "setting": "[13]", "result": 13.0, "unit": "%%"},
      {"measurement": "ACR20 (LOCF)", "setting": "[14]", "result": 72.5, "unit": "%"},
      {"measurement": "ACR20 (NRI)", "setting": "[14]", "result": 72.5, "unit": "%"},
      {"measurement": "ACR50 (LOCF)", "setting": "[14]", "result": 43.5, "unit": "%"},
      {"measurement": "ACR70 (LOCF)", "setting": "[14]", "result": 13.0, "unit": "%"},
      {"measurement": "ACR20 (LOCF)", "setting": "[15]", "result": 73.9},
      {"measurement": "ACR20 (NRI)", "setting": "[15]", "result": 73.9},
      {"measurement": "ACR50 (LOCF)", "setting": "[15]", "result": 40.6, "unit": "%"},
      {"measurement": "ACR70 (LOCF)", "setting": "[15]", "result": 18.8, "unit": "%"},
      {"measurement": "ACR20 (LOCF)", "setting": "[16]", "result": 75.4, "unit": "%"},
      {"measurement": "ACR20 (NRI)", "setting": "[16]", "result": 75.4, "unit": "%"},
      {"measurement": "ACR50 (LOCF)", "setting": "[16]", "result": 44.9, "unit": "%"},
      {"measurement": "ACR70 (LOCF)", "setting": "[16]", "result": 24.6, "unit": "%"},
      {"measurement": "ACR20 (LOCF)", "setting": "[17]", "result": 73.9, "unit": "%"},
      {"measurement": "ACR20 (NRI)", "setting": "[17]", "result": 68.1, "unit": "%"},
      {"measurement": "ACR50 (LOCF)", "setting": "[17]", "result": 49.3, "unit": "%"},
      {"measurement": "ACR70 (LOCF)", "setting": "[17]", "result": 27.5, "unit": "%"}
    ]}
  ]
}
